Measurements: patent US10208210B2, “Hydrophilic oil repellent and production method of same, surface coating material, coating film, resin composition, oil-water separation filter material, and porous body” (MITSUBISHI MATERIALS CORPORATION, priority 2014, dated 2019)

Experiment: Oil water separation test with treated polypropylene nonwoven fabric, normal pressure filtration apparatus
Conditions: polypropylene nonwoven fabric treated with 9 g compound + 1 g polyvinyl butyral in 90 g methanol; 40 mL water + 40 mL n-hexadecane

SMILES: O=C(O)C(F)(C(F)(F)F)C(F)(F)N1C(F)(C(F)(F)F)C(F)(F)OC(F)(F)C1(F)C(F)(F)F.[Ca] (centres unmarked) [Synthesis Example 35, perfluoro[2-methyl-3-(3,5-dimethylmorpholino)propionic acid] calcium]
- time until oil and water were completely separated: about 85 seconds

SMILES: O=C(O)C(F)(F)C(F)(F)N(C(F)(F)C(F)(F)C(F)(F)C(F)(F)F)C(F)(F)C(F)(F)C(F)(F)C(F)(F)F.[Ca] [Synthesis Example 1, perfluoro(3-dibutylaminopropionic acid) calcium]
- time until oil and water were completely separated: about 72 seconds
